Values quoted from earlier work, collected in article PMC10252203, “Tyrosinase Inhibitory Peptides from Enzyme Hydrolyzed Royal Jelly: Production, Separation, Identification and Docking Analysis” (Foods, 2023).

Sequences of proteins named here, by UniProt entry; tags and fusion partners are left off. Residues count along the entry.
UniProt C7FF04, 2-392 limits assumed: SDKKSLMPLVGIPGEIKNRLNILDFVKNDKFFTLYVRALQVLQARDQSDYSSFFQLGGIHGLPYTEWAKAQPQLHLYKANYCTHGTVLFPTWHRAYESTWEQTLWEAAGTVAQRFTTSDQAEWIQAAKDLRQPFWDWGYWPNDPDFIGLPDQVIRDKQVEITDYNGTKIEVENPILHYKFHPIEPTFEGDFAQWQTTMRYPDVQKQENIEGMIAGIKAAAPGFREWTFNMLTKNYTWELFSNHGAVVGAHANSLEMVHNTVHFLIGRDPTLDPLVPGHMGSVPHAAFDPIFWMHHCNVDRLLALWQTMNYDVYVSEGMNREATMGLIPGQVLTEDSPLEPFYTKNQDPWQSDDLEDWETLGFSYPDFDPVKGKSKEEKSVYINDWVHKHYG

Target: TYR (Agaricus bisporus, UniProt C7FF04)
Details: ref [48]; cited from earlier work

Q: For CC(C)C[C@H](NC(=O)[C@@H](N)C(C)C)C(=O)N[C@H](C(=O)O)[C@@H](C)O, which “IC50 (TYR inhibition), literature” value is on record?
A: 5000 µg/mL (≈ 15.1 mM)

Converted amounts (≈) assume the structure as drawn. The structures given here were assigned with low confidence; some may be wrong.
